{
  "source": "paper PMC4729832",
  "binders": {"B1": {"name": "T-cell intracellular antigen-1 (TIA1) (protein, UniProt P31483 1-386)", "chain": "MEDEMPKTLYVGNLSRDVTEALILQLFSQIGPCKNCKMIMDTAGNDPYCFVEFHEHRHAAAALAAMNGRKIMGKEVKVNWATTPSSQKKDTSSSTVVSTQRSQDHFHVFVGDLSPEITTEDIKAAFAPFGRISDARVVKDMATGKSKGYGFVSFFNKWDAENAIQQMGGQWLGGRQIRTNWATRKPPAPKSTYESNTKQLSYDEVVNQSSPSNCTVYCGGVTSGLTEQLMRQTFSPFGQIMEIRVFPDKGYSFVRFNSHESAAHAIVSVNGTTIEGHVVKCYWGKETLDMINPVQQQNQIGYPQPYGQWGQWYGNAQQIGQYMPNGWQVPAYGMYGQAWNQQGFNQTQSSAPWMGPNYGVQPPQGQNGSMLPNQPSGYRVAGYETQ"}},
  "target": "T-cell intracellular antigen-1 (TIA1) (UniProt P31483)",
  "test": "co-IP; Flag-TIA1 and GFP-TIA1 expressed in cells, with or without H2O2 treatment; lysates in lysis buffer (20 mM Tris-HCl pH 7.5, 1% Triton X-100, 0.5% deoxycholate, 137 mM NaCl), precleared, antibody 4 h at 4 °C, protein G-Sepharose, five washes",
  "note": "No constants are given. Whether binding was seen depends on the method and setting. In cells and extracts the contact can be indirect. Some entries that bind do so weakly or less than the wild type.",
  "data": [
    {"binder": "B1", "values": [
      {"measurement": "binding", "value": "binds"}
    ]}
  ]
}
